Measured values: PubChem BioAssay AID588590 (National Center for Advancing Translational Sciences (NCATS), 2011)
The whole screen tested about 390,000 compounds, of which about 4,000 (1%) were called active. Inconclusive means that the source gave no clear call. Such entries were picked first, then a sample of the others. The call rests on the fitted dose curve; in most records, active means well fitted inhibition curve with a large enough effect; inconclusive means small, poorly fitted or top-dose-only effect, or another doubt; inactive means no such curve, though single readings can be large or run the other way. Potencies beside an inconclusive call are fits to weak or partial responses and may not hold up.

Protein sequences, listed by entry. Tags and fused reporters are not part of them. Lines headed by an entry give the natural chain unless they say otherwise; changes in a name come on top.
UniProt Q9UNA4: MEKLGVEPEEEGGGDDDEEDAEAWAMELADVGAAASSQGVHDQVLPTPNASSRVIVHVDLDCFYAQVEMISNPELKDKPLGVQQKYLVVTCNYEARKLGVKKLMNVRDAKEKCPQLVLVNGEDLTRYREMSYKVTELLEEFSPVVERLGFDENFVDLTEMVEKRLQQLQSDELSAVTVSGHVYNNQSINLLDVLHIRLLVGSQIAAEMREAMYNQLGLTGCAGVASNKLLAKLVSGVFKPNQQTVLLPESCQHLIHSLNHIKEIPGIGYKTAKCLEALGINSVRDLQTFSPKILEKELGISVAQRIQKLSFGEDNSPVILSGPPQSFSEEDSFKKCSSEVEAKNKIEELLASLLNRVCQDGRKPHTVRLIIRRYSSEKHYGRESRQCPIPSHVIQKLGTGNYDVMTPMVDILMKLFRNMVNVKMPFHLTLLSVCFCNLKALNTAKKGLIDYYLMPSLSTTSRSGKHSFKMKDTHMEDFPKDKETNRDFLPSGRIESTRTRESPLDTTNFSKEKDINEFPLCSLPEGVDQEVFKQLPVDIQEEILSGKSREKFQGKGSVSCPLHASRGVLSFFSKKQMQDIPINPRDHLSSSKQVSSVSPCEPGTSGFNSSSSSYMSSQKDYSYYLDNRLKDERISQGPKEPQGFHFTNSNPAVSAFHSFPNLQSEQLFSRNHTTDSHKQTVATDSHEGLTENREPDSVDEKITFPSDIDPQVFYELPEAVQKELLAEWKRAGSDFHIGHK

target: DNA polymerase iota (Homo sapiens) (UniProt Q9UNA4); experiment: qHTS for Inhibitors of Polymerase Iota; details: Pol iota fluorescent replication assay, 10 min; series mostly up to 115 µM; activity, negative = inhibition: at the top concentration
Summary of the method: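 Fluorescent replication assay read twice, at 0 min and 10 min after adding 50 nM (final) substrate. Enzyme (10 nM) and compounds were first incubated 15 min at room temperature; enzyme-free buffer wells were negative controls.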
Potency means the concentration at half of the fitted maximal effect.

SMILES	Potency	activity, negative = inhibition
CCC(=O)Nc1cc(C(=O)O)ccc1Sc1ccc(C)cc1	inconclusive: 79.4 µM [inhibitor, single point]	
NS(=O)(=O)c1ccc(-c2cccc(/C=C3\SC(=O)NC3=O)c2)cc1	inconclusive: 17.8 µM [inhibitor, partial curve]	
Cc1c(OC(=O)CNC(=O)OC(C)(C)C)ccc2c3c(c(=O)oc12)CCC3	inconclusive: 35.5 µM [inhibitor, single point]	
CCc1nnc(N/N=C/c2cc(Br)c(O)cc2O)n1N	active: 8.91 µM	
CCOc1ccc(N2CC(C(=O)NCCN3C(=O)S/C(=C/c4cccnc4)C3=O)CC2=O)cc1 (stereo not drawn)		inactive: -12.2%
COc1ccc(OC(=O)COc2cccc(C)c2)cc1	inconclusive: 3.98 µM [inhibitor, partial curve, poor fit]	
CCCCOC(=O)NC1(C)CCS(=O)(=O)C1 (stereo not drawn)		inactive: 8.46%
Cc1c(C)c2ccc(OCC(=O)N3CCC[C@@H]3C(=O)O)c(C)c2oc1=O		inactive: -13.5%
CN(C)S(=O)(=O)c1cccc(C(=O)OCC(=O)Nc2sccc2C#N)c1	inconclusive: 0.708 µM [inhibitor, full curve, poor fit]	
O=C(N/N=C/c1ccc(OC(=O)c2cccs2)cc1)c1cccc(F)c1		inactive: -15.4% [at 58.9 µM]
O=C1NC(=S)SC1=Cc1ccccc1Br	inconclusive: 22.4 µM [inhibitor, single point]	
CCOc1ccc(C(C(=O)NC2CCCC2)N(C(=O)c2snc(C(N)=O)c2N)c2cccc(O)c2)cc1 (stereo not drawn)	inconclusive: 17.8 µM [inhibitor, partial curve, poor fit]	
CN1C(=O)Cc2cc(S(=O)(=O)CCC(=O)N3CCN(c4ccccc4F)CC3)ccc21	inconclusive: 100 µM [inhibitor, partial curve, poor fit]	
NC(=S)NNc1cccc(Cl)c1	inconclusive: 12.6 µM [inhibitor, partial curve, poor fit]	
O=C(COC(=O)/C=C/c1ccccc1[N+](=O)[O-])Nc1ccc2[nH]c(=O)[nH]c2c1	inconclusive: 15.8 µM [inhibitor, full curve, poor fit]	
CCn1c(=O)c(C(=O)Nc2ncccc2C)c(O)c2ccccc21	inconclusive: 50.1 µM [inhibitor, partial curve, poor fit]	
CC(C)c1ccc(NC(=S)NN2CCN(C)CC2)cc1	inconclusive: 79.4 µM [inhibitor, single point]	
CC(=O)c1cccc(N2C(=O)CC(N3CCN(S(=O)(=O)c4ccccc4F)CC3)C2=O)c1 (stereo not drawn)	inconclusive: 44.7 µM [inhibitor, full curve]	
O=C(O)c1nn(CC(=O)N2CCC(Cc3ccccc3)CC2)c(=O)c2ccccc12	inconclusive: 35.5 µM [inhibitor, single point]	
O=c1c2ccccc2sn1-c1ccccc1	inconclusive: 35.5 µM [inhibitor, single point]	
Cc1onc(-c2ccccc2Cl)c1C(=O)N1CCCCC1C (stereo not drawn)	inconclusive: 79.4 µM [inhibitor, single point]	

Taken from above:
Value of O=C(O)c1nn(CC(=O)N2CCC(Cc3ccccc3)CC2)c(=O)c2ccccc12 under Potency: inconclusive: 35.5 µM [inhibitor, single point]
Value of CCCCOC(=O)NC1(C)CCS(=O)(=O)C1 (stereo not drawn) under activity, negative = inhibition: inactive: 8.46%
Value of CN1C(=O)Cc2cc(S(=O)(=O)CCC(=O)N3CCN(c4ccccc4F)CC3)ccc21 under Potency: inconclusive: 100 µM [inhibitor, partial curve, poor fit]
Value of CC(C)c1ccc(NC(=S)NN2CCN(C)CC2)cc1 under Potency: inconclusive: 79.4 µM [inhibitor, single point]

Additional compounds:

SMILES	Potency	activity, negative = inhibition
CNc1ccccc(-c2ccc3cc4c(cc3n2)OCO4)c1=O	inconclusive: 50.1 µM [inhibitor, partial curve, poor fit]	
Cc1cc(O)c(CN(C)C)c2c1C(=O)/C(=C/c1ccco1)O2	inconclusive: 20 µM [inhibitor, full curve, poor fit]	
COc1ccc(NC(=S)Nc2ccc3snnc3c2)cc1	inconclusive: 22.4 µM [inhibitor, partial curve, poor fit]	
CCOC(=O)C1=CNS(=O)(=O)NC1CCc1ccccc1 (stereo not drawn)	inconclusive: 44.7 µM [inhibitor, full curve, poor fit]	
CCC(C)(NC(=O)c1ccccc1)C(=O)O (stereo not drawn)	inconclusive: 100 µM [inhibitor, single point]	
O=C(Nc1cc(N2CCOCC2)ncn1)c1ccc(F)cc1	inconclusive: 100 µM [inhibitor, partial curve, poor fit]	
O=S(=O)(Nc1nc2ccc(Cl)cc2s1)c1cccs1	inconclusive: 35.5 µM [inhibitor, partial curve, poor fit]	
CC(C)n1c(=S)[nH]c2scc(-c3cccs3)c2c1=O	active: 20 µM	
O=C1C=CCC(/C=C/c2ccccc2)O1 (stereo not drawn)	inconclusive: 14.1 µM [inhibitor, partial curve, poor fit]	
CCc1ccc(-c2nc(CS(=O)CC(=O)NCCN3CCCCCC3)c(C)o2)cc1 (stereo not drawn)	inconclusive: 50.1 µM [inhibitor, partial curve, poor fit]	
CCN(CC)S(=O)(=O)c1ccc2c(c1)N(CC(=O)N1CCN(c3ccccc3F)CC1)C(=O)CO2		inactive: -5.46%
O=C(CN1C(=O)/C(=C/c2cccc(Cl)c2)SC1=S)NC1C=CS(=O)(=O)C1 (stereo not drawn)	inconclusive: 39.8 µM [inhibitor, partial curve]	
Cc1ccc(C)c(NC(=O)COc2coc(CN3CCc4ccccc43)cc2=O)c1	inconclusive: 39.8 µM [inhibitor, single point]	
Nc1cccc2nsnc12	inconclusive: 35.5 µM [inhibitor, single point]	
O=C(NCCc1ccccn1)c1cc(-c2cccc3ccccc23)nc2ccccc12	inconclusive: 100 µM [inhibitor, single point]	
Cc1ccc(-n2c(Cc3cccn3C)nnc2SCC(=O)NCc2ccco2)cc1	inconclusive: 25.1 µM [inhibitor, full curve, poor fit]	
CCCCC(c1nnnn1CC1CCCO1)N1CCN(c2nc3ccccc3s2)CC1 (stereo not drawn)	inconclusive: 4.47 µM [inhibitor, full curve, poor fit]	
CCN(CC)c1ccc(/C=C/c2ccncc2)cc1	active: 79.4 µM	
NC(=O)CSc1nnc(-c2ccc([N+](=O)[O-])cc2)o1	inconclusive: 0.708 µM [inhibitor, full curve, poor fit]	
COc1cc(OC)cc(-c2ncc3ccccn23)c1	inconclusive: 10 µM [inhibitor, partial curve, poor fit]	
CN(CC(=O)Nc1ccccc1Cl)C(=O)COC(=O)CN1C(=O)NC2(CCCC2)C1=O	inconclusive: 79.4 µM [inhibitor, partial curve, poor fit]	

SMILES	Potency	activity, negative = inhibition
Fc1cccc(NC(=S)NC2CCCCCCC2)c1	inconclusive: 3.55 µM [inhibitor, full curve, poor fit]	
COC(=O)C1C(=O)c2c([nH]c(C(=O)OC3CCCCCC3)c2C)CC1C (stereo not drawn)	inconclusive: 79.4 µM [inhibitor, single point]	
Oc1ccc(Cl)cc1C1C=C(c2ccc3c(c2)OCO3)NC(c2ccc(C(F)(F)F)cc2)N1 (stereo not drawn)	inconclusive: 12.6 µM [inhibitor, full curve, poor fit]	
CCOc1cc(/C=C\c2nc(O)c([N+](=O)[O-])c(=O)[nH]2)ccc1OC(C)CC (stereo not drawn)	inconclusive: 20 µM [inhibitor, single point]	
COc1cc2ccc(=O)oc2cc1OCC(O)C(C)(C)O (stereo not drawn)	inconclusive: 31.6 µM [inhibitor, single point]	
COc1ccc(N2CCN(C(=O)c3ccc4c(c3)CC(c3ccccc3)OC4=O)CC2)cc1 (stereo not drawn)	inconclusive: 20 µM [inhibitor, partial curve, poor fit]	
C/C(=N\NC(=O)c1ccc(OC2OCCOC2Oc2ccc(C(=O)N/N=C(\C)c3ccncc3)cc2)cc1)c1ccncc1 (stereo not drawn)	inconclusive: 11.2 µM [inhibitor, full curve]	
NC(=O)c1c(NC(=O)COC(=O)CSc2nnc(-c3ccc(Cl)cc3)o2)sc2c1CCC2	inconclusive: 28.2 µM [inhibitor, single point]	
Cc1noc(/C=C/c2ccco2)c1S(=O)(=O)N1CCC(C(=O)Nc2ccc(F)c(Cl)c2)CC1	inconclusive: 63.1 µM [inhibitor, partial curve, poor fit]	
COc1ccc(-n2ncc3c(NCCC4=CCCCC4)ncnc32)cc1		inactive: -13.7%
O=C(c1ccc(N2CCCC2=O)cc1)N1CCCCCC1	inconclusive: 5.62 µM [inhibitor, full curve, poor fit]	
CCOC(=O)Cn1c(S(=O)(=O)Cc2ccccc2)nc2ccccc21	inconclusive: 63.1 µM [inhibitor, partial curve, poor fit]	
Cc1cc(C)cc(OCC(=O)OCC(=O)NC2CCCC2)c1	inconclusive: 4.47 µM [inhibitor, single point]	
CCCCCN(C(=O)CCC(=O)OCC(=O)N1CCCCC1)c1c(N)n(CCCC)c(=O)[nH]c1=O	inconclusive: 89.1 µM [inhibitor, single point]	
Cc1ccc(S(=O)(=O)N2CCCC(NC(=O)N3CCN(c4ccccc4)CC3)C2)cc1 (stereo not drawn)	inconclusive: 39.8 µM [inhibitor, single point]	
Cc1cc2c(=O)n(C)c(SCC(=O)NCC3CCCO3)nc2s1 (stereo not drawn)	inconclusive: 7.94 µM [inhibitor, full curve, poor fit]	
CCc1nnc(NC(=O)c2cc(C)nc3ccccc23)s1		inactive: 22.5%
O=C(Nc1cccc(OC(F)(F)F)c1)c1ccc(Br)o1	inconclusive: 10 µM [inhibitor, partial curve, poor fit]	
CC(=O)c1cccc(-c2ccc3c(=O)[nH]c(Nc4ccccc4)cc3c2)c1	inconclusive: 50.1 µM [inhibitor, partial curve, poor fit]	
CC(=C1SC(=S)NC1=O)c1ccccc1	active: 89.1 µM	
Cc1[nH][nH]c(=O)c1C(c1ccc(Cl)cc1)c1c(C)[nH][nH]c1=O	inconclusive: 17.8 µM [inhibitor, partial curve, poor fit]	
